Measured values taken from publication PMC12820563, “FoxP3 forms a head-to-head dimer in vivo and stabilizes its multimerization on adjacent microsatellites”.
Results are given in words; binding and its absence hold for the method and conditions named.

B1: mouse FoxP4^RBR-forkhead (residues 418–557) (domain or fragment, UniProt Q9DBY0 418-557)
chain: GLGSASLHSGGPARRRSNDKFCSPISSELAQNHEFYKNADVRPPFTYASLIRQAILETPDRQLTLNEIYNWFTRMFAYFRRNTATWKNAVRHNLSLHKCFVRVENVKGAVWTVDEREYQKRRPPKMTGSPTLVKNMISGL
B2: mouse FoxP2^RBR-forkhead (residues 447–588) (domain or fragment, UniProt P58463 447-588)
chain: TTPTAPVTPITQGPSVITPASVPNVGAIRRRHSDKYNIPMSSEIAPNYEFYKNADVRPPFTYATLIRQAIMESSDRQLTLNEIYSWFTRTFAYFRRNAATWKNAVRHNLSLHKCFVRVENVKGAVWTVDEVEYQKRRSQKIT

How the values were obtained:
[1] = target: mouse FoxP4^RBR-forkhead (residues 418–557) (mouse) (UniProt Q9DBY0); assay: native gel or EMSA; RBR-FKH protein (0.8 μM) with DNA harbouring a single FKHM (sFKHM, 0.2 μM) in the presence of NFAT (0.4 μM); 20 mM HEPES pH 7.5, 150 mM NaCl, 1.5 mM MgCl2, 2 mM DTT, 10 min at 4°C; 3–12% Bis-Tris native gel, SYBR Gold; both purified
[2] = target: mouse FoxP4^RBR-forkhead (residues 418–557) (mouse) (UniProt Q9DBY0); assay: native gel or EMSA; RBR-FKH protein (0.8 μM) with DNA harbouring IR-FKHM (0.2 μM) in the presence of NFAT (0.4 μM); 20 mM HEPES pH 7.5, 150 mM NaCl, 1.5 mM MgCl2, 2 mM DTT, 10 min at 4°C; 3–12% Bis-Tris native gel, SYBR Gold; monomer or dimer on the DNA told by the band pattern; both purified
[3] = target: mouse FoxP2^RBR-forkhead (residues 447–588) (mouse) (UniProt P58463); assay: native gel or EMSA; RBR-FKH protein (0.8 μM) with DNA harbouring a single FKHM (sFKHM, 0.2 μM) in the presence of NFAT (0.4 μM); 20 mM HEPES pH 7.5, 150 mM NaCl, 1.5 mM MgCl2, 2 mM DTT, 10 min at 4°C; 3–12% Bis-Tris native gel, SYBR Gold; both purified
[4] = target: mouse FoxP2^RBR-forkhead (residues 447–588) (mouse) (UniProt P58463); assay: native gel or EMSA; RBR-FKH protein (0.8 μM) with DNA harbouring IR-FKHM (0.2 μM) in the presence of NFAT (0.4 μM); 20 mM HEPES pH 7.5, 150 mM NaCl, 1.5 mM MgCl2, 2 mM DTT, 10 min at 4°C; 3–12% Bis-Tris native gel, SYBR Gold; monomer or dimer on the DNA told by the band pattern; both purified

Row | Binder | binding [1] | binding [2] | binding [3] | binding [4]
1 | B1 | no binding (tested: 0.8 μM protein with 0.2 μM DNA) | no binding (tested: 0.8 μM protein with 0.2 μM DNA) | – | –
2 | B2 | – | – | no binding (tested: 0.8 μM protein with 0.2 μM DNA) | no binding (tested: 0.8 μM protein with 0.2 μM DNA)
